Results are given in words; binding and its absence hold for the method and conditions named. In cells and extracts the contact can be indirect. Some binding calls cover weakened binding; strength is not graded here.
Target: 3xFLAG-tagged rat KCNQ2 (rat) (UniProt O88943)
Test: co-IP; 1 µg purified AKAP150-His6 added to HEK293A lysate with KCNQ2-FLAG and CaM-V5, then anti-FLAG resin; calcium (–) and calcium (+) buffers; blot with anti-AKAP150; only the binder purified

Sequences of proteins named here, by UniProt entry; tags and fusion partners are left off.
UniProt O88943: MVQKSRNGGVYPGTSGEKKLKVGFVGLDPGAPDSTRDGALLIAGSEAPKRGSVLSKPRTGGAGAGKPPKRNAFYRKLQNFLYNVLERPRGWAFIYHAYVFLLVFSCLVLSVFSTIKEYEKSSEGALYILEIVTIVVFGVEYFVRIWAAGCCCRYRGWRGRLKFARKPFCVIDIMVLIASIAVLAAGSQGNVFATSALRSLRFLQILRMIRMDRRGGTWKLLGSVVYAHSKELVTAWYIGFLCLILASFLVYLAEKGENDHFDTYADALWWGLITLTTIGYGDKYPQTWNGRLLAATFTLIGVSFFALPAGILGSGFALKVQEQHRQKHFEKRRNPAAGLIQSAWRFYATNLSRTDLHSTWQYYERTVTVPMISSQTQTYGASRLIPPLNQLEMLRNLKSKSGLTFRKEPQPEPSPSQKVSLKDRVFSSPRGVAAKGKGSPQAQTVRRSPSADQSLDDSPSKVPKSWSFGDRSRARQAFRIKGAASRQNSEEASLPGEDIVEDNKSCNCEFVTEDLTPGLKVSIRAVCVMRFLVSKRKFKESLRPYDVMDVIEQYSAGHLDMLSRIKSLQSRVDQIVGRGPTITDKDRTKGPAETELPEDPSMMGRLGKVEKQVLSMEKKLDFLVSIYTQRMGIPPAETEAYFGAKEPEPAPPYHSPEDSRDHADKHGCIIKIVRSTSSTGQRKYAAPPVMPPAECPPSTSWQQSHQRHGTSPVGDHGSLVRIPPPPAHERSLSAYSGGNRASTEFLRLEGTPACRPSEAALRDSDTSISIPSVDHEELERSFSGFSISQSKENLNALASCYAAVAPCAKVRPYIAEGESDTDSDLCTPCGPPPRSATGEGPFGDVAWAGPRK
UniProt P24587: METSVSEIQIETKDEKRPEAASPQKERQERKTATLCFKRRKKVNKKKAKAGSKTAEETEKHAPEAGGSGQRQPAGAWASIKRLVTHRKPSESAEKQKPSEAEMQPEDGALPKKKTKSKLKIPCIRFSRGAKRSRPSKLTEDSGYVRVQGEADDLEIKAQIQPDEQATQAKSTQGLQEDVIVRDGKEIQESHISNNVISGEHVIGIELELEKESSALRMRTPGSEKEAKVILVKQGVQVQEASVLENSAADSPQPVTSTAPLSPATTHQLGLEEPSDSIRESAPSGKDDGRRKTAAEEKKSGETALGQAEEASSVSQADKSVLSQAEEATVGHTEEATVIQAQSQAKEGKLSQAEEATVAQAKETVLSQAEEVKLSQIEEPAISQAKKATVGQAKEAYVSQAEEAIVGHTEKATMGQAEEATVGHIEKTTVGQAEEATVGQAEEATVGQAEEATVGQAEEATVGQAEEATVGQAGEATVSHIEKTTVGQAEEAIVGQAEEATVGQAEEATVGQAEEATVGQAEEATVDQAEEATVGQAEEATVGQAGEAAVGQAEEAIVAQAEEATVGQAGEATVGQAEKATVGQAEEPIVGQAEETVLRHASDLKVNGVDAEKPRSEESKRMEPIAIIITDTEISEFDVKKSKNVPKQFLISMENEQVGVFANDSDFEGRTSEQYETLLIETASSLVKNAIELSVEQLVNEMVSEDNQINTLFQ

- binding: binds
Substance: AKAP150-His6 (from UniProt P24587 1-714)
